Assay results: the supplement of paper PMC7125110
± gives the standard error. Many of these values have a large error.

B1: glmS ribozyme (parent)
chain: AUAAAAGCGCCAGAACUACAGAAAUGUAGUUGACGAGGAGGAGGUUUAUCGAAUUUUCGGCGGAUGCCUCCAAA

Variants of: B1
Experiment: self-cleavage kobs at 40 uM GlcN6P; higher = faster cleavage; RNA array
Details: with glucosamine-6-phosphate
How it was run: (§1)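 Barcoded glmS ribozyme variants on sequenced MiSeq chips were transcribed in situ by E. coli RNA polymerase and tracked through a hybridised Cy3 probe at 37 °C. Glucosamine-6-phosphate (40 μM to 10 mM) in HEPES/KCl/Mg(OAc)2 buffer was flowed in, and tiles were imaged over ~14 h. Signals were normalised to baseline and to non-cleaving reference variants; per-tile medians were fit to one- or two-exponential decays to give kobs. kcat and KM came from weighted Michaelis–Menten fits across concentrations.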

Variant	self-cleavage kobs at 40 uM GlcN6P
C8U A12G C68G C71U	2.47e-05 ± 2.1e-05 s⁻¹
C10A A33G G38U C58A C70U	3.58e-05 ± 2e-05 s⁻¹
G32U A53G	2.23e-05 ± 1.6e-05 s⁻¹
A33U G59C C70G	3.08e-05 ± 2.6e-05 s⁻¹
G38U C50G U55G U57G	3.63e-05 ± 2.5e-05 s⁻¹
A14U G40C U46C A53G C71G	1.65e-05 ± 1.6e-05 s⁻¹
A14C G59U C70G	4.05e-05 ± 2.5e-05 s⁻¹
C10U C11G U30A U69G	2.71e-05 ± 1.9e-05 s⁻¹
U31G U47C U54A	3.09e-05 ± 1.7e-05 s⁻¹
U46C U69A	3.56e-05 ± 2.3e-05 s⁻¹
C67G C68A	1.5e-05 ± 1.1e-05 s⁻¹
A12G U45A C71U	1.65e-05 ± 1.4e-05 s⁻¹
A14U C16G	1.99e-05 ± 1e-05 s⁻¹
G66A C68G	2.24e-05 ± 1.2e-05 s⁻¹
C50G G60A	1.95e-05 ± 1.2e-05 s⁻¹
A39U A52G	1.2e-05 ± 9.4e-06 s⁻¹
C34U C70G	3.25e-05 ± 1.8e-05 s⁻¹
A39G G44U	2.81e-05 ± 1.7e-05 s⁻¹
A15U G32A	1.31e-05 ± 1.2e-05 s⁻¹
G29C U69C	2e-05 ± 1.9e-05 s⁻¹
C11A C50G C61U	4.96e-05 ± 2.6e-05 s⁻¹
C16G C50G	3e-05 ± 2.1e-05 s⁻¹
U45C U56A	1.61e-05 ± 9.4e-06 s⁻¹
A15U C34G C50A A52G C71U	2.63e-05 ± 2e-05 s⁻¹
G44A U45C	2.01e-05 ± 1.1e-05 s⁻¹

Shown with bars between the fields: part of the list above.
Variant | self-cleavage kobs at 40 uM GlcN6P
G38U C50G U55G U57G | 3.63e-05 ± 2.5e-05 s⁻¹
A14U G40C U46C A53G C71G | 1.65e-05 ± 1.6e-05 s⁻¹

Variants of: B1
Experiment: self-cleavage kobs at 10000 uM GlcN6P; higher = faster cleavage; RNA array
Details: with glucosamine-6-phosphate
How it was run: as §1

Variant	self-cleavage kobs at 10000 uM GlcN6P
C8U A12G C68G C71U	1.93e-05 ± 1.9e-05 s⁻¹
C8U U69A	0.000654 ± 0.0006 s⁻¹
C50G G60A	0.000722 ± 0.00049 s⁻¹
C11A C50G C61U	4.09e-05 ± 3e-05 s⁻¹

Variants of: B1
Experiment: KM; higher = weaker cofactor use; RNA array
Details: with glucosamine-6-phosphate
How it was run: as §1

Variant	KM
A53U C67A	785 ± 230 µM
A39U G66U	2010 ± 860 µM
G40C C67U	2080 ± 1100 µM
U56A U65C	518 ± 520 µM
U56A C58A	8870 ± 6200 µM
U46G C58A	10000 ± 4400 µM
A42U U46G	901 ± 260 µM
A53G G62U	54.1 ± 47 µM
C50U A64G	10200 ± 2700 µM
U47A C70U	73.5 ± 58 µM
G41U U54G	196 ± 120 µM
G41U U54C	639 ± 320 µM
G59U	1210 ± 130 µM
G37C U54C	9990 ± 8200 µM
G44A U55G	1380 ± 1200 µM
G38A U69G	89.8 ± 85 µM
A42G C70U	1580 ± 870 µM
U54A C71G	145 ± 94 µM
U49A U55A	5970 ± 610 µM
U55A U65G	5810 ± 3200 µM
A39U G40A	1880 ± 1200 µM
G41C U45G G66C	6290 ± 3200 µM

Variant	KM
U46G U69A	142 ± 100 µM
G40U U47G	908 ± 250 µM
A53G U55G	2460 ± 1400 µM
A53G U55C	1230 ± 510 µM
A52U C68U	2080 ± 62 µM
G43U U54G	1500 ± 1400 µM
G66A C68G	196 ± 150 µM
G41C U56A	2730 ± 2200 µM
A39U A52G	4750 ± 800 µM
G37A G62A	62.6 ± 53 µM
G40U U56G	1680 ± 940 µM
G59A C70U	1970 ± 320 µM
A39G G44U	6340 ± 3000 µM
U47G A48G	504 ± 270 µM
G66A C67A C71U	4670 ± 3000 µM
U55A G59U	1940 ± 1300 µM
C68G	302 ± 260 µM
U45C U56C	5500 ± 810 µM
U45C U56A	1520 ± 800 µM
U56A U57G	3270 ± 1800 µM
A39G C67G	602 ± 300 µM
U57A G60U	13.6 ± 10 µM

Variants of: B1
Experiment: self-cleavage kobs at 2500 uM GlcN6P; higher = faster cleavage; RNA array
Details: with glucosamine-6-phosphate
How it was run: as §1

Variant	self-cleavage kobs at 2500 uM GlcN6P
A53U C67A	0.0077 ± 0.0048 s⁻¹
G37C U54C	1.26e-05 ± 1e-05 s⁻¹
C10A U47A U57A C70U	4.26e-05 ± 2.8e-05 s⁻¹

Variants of: B1
Experiment: self-cleavage kobs at 640 uM GlcN6P; higher = faster cleavage; RNA array
Details: with glucosamine-6-phosphate
How it was run: as §1

Variant	self-cleavage kobs at 640 uM GlcN6P
G40C C67U	1.49e-05 ± 1.1e-05 s⁻¹
G9U C16A C34A C50G	5.11e-05 ± 3.4e-05 s⁻¹
U46G C58A	2.13e-05 ± 1.9e-05 s⁻¹
A6U U49G U56G C67U C70G	3.02e-05 ± 2.4e-05 s⁻¹
C8U U69A	3.29e-05 ± 2.5e-05 s⁻¹
G38A U69G	2.68e-05 ± 1.4e-05 s⁻¹
A6U G13C C70G	2.98e-05 ± 2.2e-05 s⁻¹
C10A A14G U31C A36U A64C C67G	0.000222 ± 0.00011 s⁻¹
C10A G13U C68A	0.000233 ± 0.00016 s⁻¹
C11G A14U C70U	3.26e-05 ± 2.4e-05 s⁻¹
C10A C50U C68A	3.25e-05 ± 3.1e-05 s⁻¹
C50G G60A	2.44e-05 ± 1.7e-05 s⁻¹
C10A U47A U57A C70U	4.77e-05 ± 2.5e-05 s⁻¹
A6U U47G	2.39e-05 ± 1.7e-05 s⁻¹
C10A G60C G63C C67A C68G C70G C71U	3.19e-05 ± 2.2e-05 s⁻¹
C16G C50G	0.000637 ± 0.00033 s⁻¹

Laid out differently: entries from further up.
Variant,self-cleavage kobs at 640 uM GlcN6P
C11G A14U C70U,3.26e-05 ± 2.4e-05 s⁻¹
C10A C50U C68A,3.25e-05 ± 3.1e-05 s⁻¹

Variants of: B1
Experiment: self-cleavage kobs at 160 uM GlcN6P; higher = faster cleavage; RNA array
Details: with glucosamine-6-phosphate
How it was run: as §1

Variant	self-cleavage kobs at 160 uM GlcN6P
G59U	< 1e-05 s⁻¹
G38A U69G	2.17e-05 ± 1.4e-05 s⁻¹
C16G C50G	0.000157 ± 0.00015 s⁻¹
